PubChem BioAssay AID1259254 | NCATS | 2017
Assay: 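Genome-wide screen for genes that prevent DNA re-replication in cancer cells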 (primary screen). Cell system: human HCT116 colorectal cancer cells. Reagents: single siRNA against human genes. Time to read-out: 3 days. Detection: 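Imaged Hoechst DNA stain sorts each cell into a cycle phase by DNA amount; per plate, G2 fraction set to 0% for non-targeting and 100% for GMNN siRNA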. Scale: G2 robust z-score: higher = more G2 cells, more excess DNA replication. Call rule: 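Active siRNAs have a G2 robust z of 5 or more median absolute deviations over the median, which in these data means about 38% or higher of GMNN control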.
Here is one part, drawn at random, of about 59,000 deposited reagents. Of all reagents, about 1,550 (2.6%) got an active call. 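G2 share is only a proxy for re-replication; each gene was hit by three separate siRNAs, and active genes were retested.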 Entries without a mark were called inactive. Further read-outs or replicates are left out here. Not stated in the record: the amount of reagent.

RSPO4 [SID160764731]: G2 robust z-score = -0.468
RSPO4 [SID160764732]: G2 robust z-score = -0.171
RSPO4 [SID160764733]: G2 robust z-score = 1.43
LOC391322 [SID160766674]: G2 robust z-score = -0.631
LOC391322 [SID160766675]: G2 robust z-score = -0.527
LOC391322 [SID160766676]: G2 robust z-score = -0.904
AQP12A [SID160725156]: G2 robust z-score = -0.359
AQP12A [SID160725157]: G2 robust z-score = -0.56
AQP12A [SID160765412]: G2 robust z-score = -0.175
NTMT1 [SID160733024]: G2 robust z-score = 3.84
NTMT1 [SID160738944]: G2 robust z-score = -0.527
NTMT1 [SID160738946]: G2 robust z-score = 1.01
FOXA2 [SID160775091]: G2 robust z-score = -0.834
FOXA2 [SID160775092]: G2 robust z-score = -0.179
FOXA2 [SID160775093]: G2 robust z-score = -0.697
DGKZ [SID160720236]: G2 robust z-score = -0.782
DGKZ [SID160720237]: G2 robust z-score = -0.706
DGKZ [SID160720238]: G2 robust z-score = 4.6

Looked up above:
Result of FOXA2 [SID160775093] under “G2 robust z-score”: -0.697
For “G2 robust z-score”, AQP12A [SID160765412] is entered as -0.175
Under “G2 robust z-score”, AQP12A [SID160725157] is entered as -0.56

The results go on:
FAM167A [SID160751275]: G2 robust z-score = 0.0865
FAM167A [SID160751276]: G2 robust z-score = 0.0837
FAM167A [SID160751277]: G2 robust z-score = 1.68
PYDC1 [SID160724971]: G2 robust z-score = 0.24
PYDC1 [SID160762652]: G2 robust z-score = 2.43
PYDC1 [SID160762653]: G2 robust z-score = 0.572
PLEKHG5 [SID160745981]: G2 robust z-score = 0.0428
PLEKHG5 [SID160745982]: G2 robust z-score = -1.12
PLEKHG5 [SID160745983]: G2 robust z-score = 4.89
COX6B1 [SID160723710]: G2 robust z-score = -0.455
COX6B1 [SID160746936]: G2 robust z-score = -0.0934
COX6B1 [SID160746947]: G2 robust z-score = 0.0623
